In PMC7072254:
These are yes or no findings as the source states them, for the method shown. In cells and extracts the contact can be indirect. Some results given as binding are weak or reduced against the parent protein; the word gives no strength. Each block holds one molecule with its values, some of them ahead of it.

Tests used:
[1] = target: T1, Endogenous PPM1A (protein phosphatase Mg2+/Mn2+-dependent 1A) in 3T3-L1 adipocytes (mouse (endogenous in 3T3-L1)) (UniProt P49443); assay: co-IP; endogenous PPM1A and endogenous PPARγ each immunoprecipitated from 3T3-L1 adipocytes, the other detected by Western blotting
T1 sequence: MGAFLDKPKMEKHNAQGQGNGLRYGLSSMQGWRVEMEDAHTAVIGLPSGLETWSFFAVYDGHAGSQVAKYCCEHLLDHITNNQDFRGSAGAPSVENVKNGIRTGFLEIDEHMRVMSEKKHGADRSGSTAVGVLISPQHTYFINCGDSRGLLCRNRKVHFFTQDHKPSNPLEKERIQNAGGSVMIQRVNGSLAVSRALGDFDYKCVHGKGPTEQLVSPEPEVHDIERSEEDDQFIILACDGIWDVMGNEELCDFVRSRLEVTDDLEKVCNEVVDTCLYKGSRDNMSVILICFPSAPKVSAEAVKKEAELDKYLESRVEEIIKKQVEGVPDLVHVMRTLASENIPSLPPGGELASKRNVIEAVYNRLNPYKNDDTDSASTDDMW

[2] = target: Endogenous PPARγ (peroxisome proliferator-activated receptor gamma) in 3T3-L1 adipocytes (mouse (endogenous in 3T3-L1)) (UniProt P37238); assay: as above
[3] = target: FLAG epitope-tagged wild-type PPARγ expressed in HEK-293 cells (UniProt P37238); assay: co-IP; HEK-293 cells co-transfected with PPARγ and PPM1A, with or without PMA (500 nM, 30 min); total cell lysates incubated with FLAG M2 agarose at 4 °C; Western blotting
[4] = target: FLAG epitope-tagged PPARγ S273A expressed in HEK-293 cells (UniProt P37238); assay: as above

binding [1]: binds
Molecule: Endogenous PPARγ (peroxisome proliferator-activated receptor gamma) in 3T3-L1 adipocytes (from UniProt P37238 1-505)

binding [2]: binds
B1: Endogenous PPM1A (protein phosphatase Mg2+/Mn2+-dependent 1A) in 3T3-L1 adipocytes (enzyme, UniProt P49443 1-382)
chain: MGAFLDKPKMEKHNAQGQGNGLRYGLSSMQGWRVEMEDAHTAVIGLPSGLETWSFFAVYDGHAGSQVAKYCCEHLLDHITNNQDFRGSAGAPSVENVKNGIRTGFLEIDEHMRVMSEKKHGADRSGSTAVGVLISPQHTYFINCGDSRGLLCRNRKVHFFTQDHKPSNPLEKERIQNAGGSVMIQRVNGSLAVSRALGDFDYKCVHGKGPTEQLVSPEPEVHDIERSEEDDQFIILACDGIWDVMGNEELCDFVRSRLEVTDDLEKVCNEVVDTCLYKGSRDNMSVILICFPSAPKVSAEAVKKEAELDKYLESRVEEIIKKQVEGVPDLVHVMRTLASENIPSLPPGGELASKRNVIEAVYNRLNPYKNDDTDSASTDDMW

binding [3]: binds
binding [4]: binds
B2: WT human PPM1A expressed in HEK-293 cells (enzyme, UniProt P35813 1-382)
chain: MGAFLDKPKMEKHNAQGQGNGLRYGLSSMQGWRVEMEDAHTAVIGLPSGLESWSFFAVYDGHAGSQVAKYCCEHLLDHITNNQDFKGSAGAPSVENVKNGIRTGFLEIDEHMRVMSEKKHGADRSGSTAVGVLISPQHTYFINCGDSRGLLCRNRKVHFFTQDHKPSNPLEKERIQNAGGSVMIQRVNGSLAVSRALGDFDYKCVHGKGPTEQLVSPEPEVHDIERSEEDDQFIILACDGIWDVMGNEELCDFVRSRLEVTDDLEKVCNEVVDTCLYKGSRDNMSVILICFPNAPKVSPEAVKKEAELDKYLECRVEEIIKKQGEGVPDLVHVMRTLASENIPSLPPGGELASKRNVIEAVYNRLNPYKNDDTDSTSTDDMW
